In the supplement of paper PMC12067093, “Discovery and optimisation of a covalent ligand for TRIM25 and its application to targeted protein ubiquitination” (Chemical Science, 2025):
This is one part of the list.

Chains of the proteins cited; added tags and fusions are not shown. Lines headed by an entry give the natural chain unless they say otherwise; changes in a name come on top.
UniProt O75410: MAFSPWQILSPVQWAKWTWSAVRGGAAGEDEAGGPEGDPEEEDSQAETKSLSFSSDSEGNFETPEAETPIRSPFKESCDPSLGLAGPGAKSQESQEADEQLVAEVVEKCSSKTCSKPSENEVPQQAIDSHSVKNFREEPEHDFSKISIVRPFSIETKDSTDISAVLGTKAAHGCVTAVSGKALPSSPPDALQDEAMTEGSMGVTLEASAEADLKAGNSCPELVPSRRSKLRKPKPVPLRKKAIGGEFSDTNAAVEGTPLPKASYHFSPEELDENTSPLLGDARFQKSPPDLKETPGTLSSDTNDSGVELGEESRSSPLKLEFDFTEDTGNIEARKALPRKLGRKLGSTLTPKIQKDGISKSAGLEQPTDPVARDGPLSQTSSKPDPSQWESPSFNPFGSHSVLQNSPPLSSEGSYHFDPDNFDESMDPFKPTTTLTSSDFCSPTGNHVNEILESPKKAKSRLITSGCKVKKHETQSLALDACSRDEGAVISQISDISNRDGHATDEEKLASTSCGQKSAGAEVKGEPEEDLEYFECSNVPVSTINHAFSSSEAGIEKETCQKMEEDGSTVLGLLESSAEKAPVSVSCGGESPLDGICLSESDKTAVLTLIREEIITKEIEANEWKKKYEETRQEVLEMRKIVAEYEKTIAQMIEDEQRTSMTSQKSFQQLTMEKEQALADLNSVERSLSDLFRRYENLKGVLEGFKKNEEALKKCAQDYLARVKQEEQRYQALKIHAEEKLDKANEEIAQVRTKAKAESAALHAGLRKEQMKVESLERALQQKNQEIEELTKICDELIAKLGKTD
UniProt Q13395: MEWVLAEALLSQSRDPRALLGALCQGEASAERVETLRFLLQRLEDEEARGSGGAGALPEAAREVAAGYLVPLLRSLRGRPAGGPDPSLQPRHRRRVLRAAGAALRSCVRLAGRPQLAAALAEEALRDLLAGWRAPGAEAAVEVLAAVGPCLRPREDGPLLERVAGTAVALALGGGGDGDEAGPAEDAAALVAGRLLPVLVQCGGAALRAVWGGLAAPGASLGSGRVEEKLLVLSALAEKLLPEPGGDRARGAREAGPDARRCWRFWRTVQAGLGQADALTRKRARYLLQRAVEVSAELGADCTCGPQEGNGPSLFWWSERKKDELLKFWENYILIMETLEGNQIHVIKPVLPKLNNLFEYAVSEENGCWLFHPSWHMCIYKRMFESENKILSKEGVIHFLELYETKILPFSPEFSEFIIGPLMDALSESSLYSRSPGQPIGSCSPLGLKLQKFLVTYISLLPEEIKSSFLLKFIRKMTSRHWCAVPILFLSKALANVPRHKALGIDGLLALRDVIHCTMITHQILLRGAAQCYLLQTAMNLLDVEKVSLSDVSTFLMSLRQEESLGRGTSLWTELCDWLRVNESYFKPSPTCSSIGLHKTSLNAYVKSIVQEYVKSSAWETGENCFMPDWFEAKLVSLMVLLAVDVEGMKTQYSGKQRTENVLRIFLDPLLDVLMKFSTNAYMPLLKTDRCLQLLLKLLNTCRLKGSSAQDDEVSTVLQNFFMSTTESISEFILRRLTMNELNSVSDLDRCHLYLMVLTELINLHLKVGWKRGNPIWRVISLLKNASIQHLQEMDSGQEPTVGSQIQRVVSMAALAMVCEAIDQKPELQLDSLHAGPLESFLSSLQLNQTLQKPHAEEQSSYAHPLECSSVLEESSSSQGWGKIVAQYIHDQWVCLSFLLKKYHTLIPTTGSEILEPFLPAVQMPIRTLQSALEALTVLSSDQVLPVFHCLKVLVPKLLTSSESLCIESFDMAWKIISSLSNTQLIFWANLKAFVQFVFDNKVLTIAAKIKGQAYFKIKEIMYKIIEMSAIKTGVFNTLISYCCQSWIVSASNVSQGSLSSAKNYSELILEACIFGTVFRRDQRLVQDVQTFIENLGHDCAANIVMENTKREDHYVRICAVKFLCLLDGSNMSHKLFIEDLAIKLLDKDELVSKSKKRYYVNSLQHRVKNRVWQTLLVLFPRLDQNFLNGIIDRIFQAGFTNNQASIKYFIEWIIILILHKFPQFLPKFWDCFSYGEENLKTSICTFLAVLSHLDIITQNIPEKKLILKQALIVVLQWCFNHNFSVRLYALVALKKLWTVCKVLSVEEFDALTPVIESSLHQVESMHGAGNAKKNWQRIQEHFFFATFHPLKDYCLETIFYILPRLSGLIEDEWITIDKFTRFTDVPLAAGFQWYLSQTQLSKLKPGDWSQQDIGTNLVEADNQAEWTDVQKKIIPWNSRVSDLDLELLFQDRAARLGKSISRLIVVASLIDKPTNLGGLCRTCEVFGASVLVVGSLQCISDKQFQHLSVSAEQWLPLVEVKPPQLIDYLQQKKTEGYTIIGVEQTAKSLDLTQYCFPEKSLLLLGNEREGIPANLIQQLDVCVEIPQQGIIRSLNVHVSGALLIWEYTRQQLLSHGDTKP

The targets below were run with CC1Cc2ccccc2N1C(=O)C1CCCN(C1)C(=O)CCl (mixture of isomers) [TRIM25 ligand 11 (diastereomer mixture)] (assay: probe-labelled cysteine peptide fold change vs DMSO (competition) (log2 fold change); higher = less target engagement (more negative = stronger competition)). Details: 50 µM; THP-1; incubation time: 4 h.
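Further: competitive chemoproteomic profiling in live THP-1 cells with an iodoacetamide desthiobiotin (IA-DTB) probe, comparing probe-labelled peptide intensities in compound-treated cells against DMSO-treated controls.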

Target	probe-labelled cysteine peptide fold change
TACC1_O75410_467_LITSGCK (UniProt O75410)	-0.377
TBRG4_Q969Z0_191_HLAFLAESCATLSQEQHSQELLAELLTHLER (UniProt Q969Z0)	-0.191
TARBP1_Q13395_1481_LIVVASLIDKPTNLGGLCR (UniProt Q13395)	-0.0834
